The text below walks through data of US20230116446A1.

Experiment [1] has as its target His6 tagged soluble monomeric extracellular domain (ECD) of hSIRPα v2 (human). The experiment in a line: SPR sensorgrams (Biacore), multi-cycle and single-cycle kinetics.
Experiment [2] shares this target. Put plainly: SPR (Biacore T200); antibody captured on a CM5 chip by immobilized goat anti-human Fc polyclonal antibody; monomeric hSIRPα v2 ECD injected as analyte; multi-cycle with regeneration (panel D) and single-cycle without regeneration (panel H); axes are time (s) and RU according to the legend. (SPR reads the build-up and loss of mass on a sensor chip optically.)

No constants are given. Whether binding was seen depends on the method and setting. Binding calls can cover weak binding; strength is not graded here.

B1: parental anti-hSIRPα #24 IgG antibody (antibody, V domains shown)
VH: EVQLVESGGGLVKPGGSLRLSCAASGFTFSSYVMSWVRQTPGKGLEWVATISSGGTYTYYPDSVKGRFTLSRDNAKNSLYLQMNSLRAEDTAVYYCASQLTGSEFDYWGQGTTVTVSS
VL: DIVLTQSPASLAVSLGERATISCRASESVDLYGTSFMHWYQQKPGQPPKLLIYRASNLESGVPDRFSGSGSRTDFTLTINPLQAEDVATYYCHQSSDELPWTFGGGTKVEIKR
Consider B1, for which the binding entry in experiment [1] and in experiment [2] was “binds” in each case.
